Assay results as given in the supplement of paper PMC10849652.
The list shows a part of the results.

The chains behind the UniProt entries cited, without tags or fusion partners. Where a name states a change or a piece, a line headed by the entry shows the natural chain unless it says otherwise.
UniProt Q9BQ67, whole entry, looked up: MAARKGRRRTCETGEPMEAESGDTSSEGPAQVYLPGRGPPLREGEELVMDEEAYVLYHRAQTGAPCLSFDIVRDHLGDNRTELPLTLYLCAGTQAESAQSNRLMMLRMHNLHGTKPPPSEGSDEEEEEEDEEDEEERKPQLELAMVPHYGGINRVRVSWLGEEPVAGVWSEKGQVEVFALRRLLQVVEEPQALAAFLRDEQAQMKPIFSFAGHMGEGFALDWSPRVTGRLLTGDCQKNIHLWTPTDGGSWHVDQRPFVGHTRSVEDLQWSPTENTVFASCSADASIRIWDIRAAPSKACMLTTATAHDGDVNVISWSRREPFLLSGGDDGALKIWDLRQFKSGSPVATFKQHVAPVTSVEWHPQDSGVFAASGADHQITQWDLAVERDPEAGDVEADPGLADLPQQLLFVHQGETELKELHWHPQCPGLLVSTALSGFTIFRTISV
UniProt Q13888: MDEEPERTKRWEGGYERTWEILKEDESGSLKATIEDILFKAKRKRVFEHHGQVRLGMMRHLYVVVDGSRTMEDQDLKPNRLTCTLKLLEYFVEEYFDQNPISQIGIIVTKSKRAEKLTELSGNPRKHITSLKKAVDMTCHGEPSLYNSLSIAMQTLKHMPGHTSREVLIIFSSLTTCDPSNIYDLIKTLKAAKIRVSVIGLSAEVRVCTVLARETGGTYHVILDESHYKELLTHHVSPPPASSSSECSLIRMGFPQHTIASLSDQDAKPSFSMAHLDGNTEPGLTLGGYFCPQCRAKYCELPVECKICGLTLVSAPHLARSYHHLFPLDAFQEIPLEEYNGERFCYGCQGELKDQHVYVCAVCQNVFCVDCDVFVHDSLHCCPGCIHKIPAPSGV
UniProt P49840: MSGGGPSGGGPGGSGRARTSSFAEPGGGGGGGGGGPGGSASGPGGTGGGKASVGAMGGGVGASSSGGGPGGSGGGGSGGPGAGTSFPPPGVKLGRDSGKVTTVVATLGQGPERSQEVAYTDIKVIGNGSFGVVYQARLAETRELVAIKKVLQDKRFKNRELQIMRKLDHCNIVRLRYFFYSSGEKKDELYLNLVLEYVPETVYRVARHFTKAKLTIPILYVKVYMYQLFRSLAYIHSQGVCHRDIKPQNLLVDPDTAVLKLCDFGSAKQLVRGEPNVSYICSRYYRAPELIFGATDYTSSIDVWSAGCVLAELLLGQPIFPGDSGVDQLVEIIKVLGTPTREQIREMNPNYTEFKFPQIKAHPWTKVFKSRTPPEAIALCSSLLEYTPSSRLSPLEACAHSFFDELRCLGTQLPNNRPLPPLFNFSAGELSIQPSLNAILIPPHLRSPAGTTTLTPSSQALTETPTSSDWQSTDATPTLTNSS
UniProt Q8N442: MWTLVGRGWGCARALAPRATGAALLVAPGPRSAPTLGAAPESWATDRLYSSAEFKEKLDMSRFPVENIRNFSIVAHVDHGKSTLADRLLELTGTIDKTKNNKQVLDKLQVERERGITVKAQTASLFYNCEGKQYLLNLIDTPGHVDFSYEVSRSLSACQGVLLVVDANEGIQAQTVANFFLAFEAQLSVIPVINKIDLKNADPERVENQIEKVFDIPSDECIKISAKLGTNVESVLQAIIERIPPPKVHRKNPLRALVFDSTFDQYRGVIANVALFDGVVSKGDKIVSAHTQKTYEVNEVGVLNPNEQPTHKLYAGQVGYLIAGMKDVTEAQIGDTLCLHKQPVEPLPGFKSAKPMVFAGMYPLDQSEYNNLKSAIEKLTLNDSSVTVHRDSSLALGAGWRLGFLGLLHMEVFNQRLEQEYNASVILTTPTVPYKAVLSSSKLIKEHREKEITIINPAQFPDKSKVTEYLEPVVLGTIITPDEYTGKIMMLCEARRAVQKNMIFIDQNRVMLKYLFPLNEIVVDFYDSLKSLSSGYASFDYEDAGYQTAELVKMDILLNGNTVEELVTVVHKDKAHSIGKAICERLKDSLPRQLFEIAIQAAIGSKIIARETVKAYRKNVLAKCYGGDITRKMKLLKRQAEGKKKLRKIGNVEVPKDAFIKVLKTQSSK
UniProt O94927: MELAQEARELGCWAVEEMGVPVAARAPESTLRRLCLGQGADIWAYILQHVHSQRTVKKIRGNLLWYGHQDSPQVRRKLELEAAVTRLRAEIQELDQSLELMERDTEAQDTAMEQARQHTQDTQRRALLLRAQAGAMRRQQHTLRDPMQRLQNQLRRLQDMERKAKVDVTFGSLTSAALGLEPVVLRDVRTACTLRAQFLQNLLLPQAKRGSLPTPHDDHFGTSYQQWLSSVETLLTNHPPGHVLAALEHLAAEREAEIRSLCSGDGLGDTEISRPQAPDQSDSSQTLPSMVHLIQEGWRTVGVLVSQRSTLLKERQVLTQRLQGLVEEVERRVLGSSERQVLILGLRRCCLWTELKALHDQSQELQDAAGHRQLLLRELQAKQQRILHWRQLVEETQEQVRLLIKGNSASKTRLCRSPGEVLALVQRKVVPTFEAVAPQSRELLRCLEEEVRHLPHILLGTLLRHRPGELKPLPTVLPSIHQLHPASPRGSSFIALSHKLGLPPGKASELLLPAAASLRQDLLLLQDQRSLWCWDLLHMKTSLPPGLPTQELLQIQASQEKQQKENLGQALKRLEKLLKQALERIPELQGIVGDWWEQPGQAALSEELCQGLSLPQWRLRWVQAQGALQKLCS
UniProt P30711: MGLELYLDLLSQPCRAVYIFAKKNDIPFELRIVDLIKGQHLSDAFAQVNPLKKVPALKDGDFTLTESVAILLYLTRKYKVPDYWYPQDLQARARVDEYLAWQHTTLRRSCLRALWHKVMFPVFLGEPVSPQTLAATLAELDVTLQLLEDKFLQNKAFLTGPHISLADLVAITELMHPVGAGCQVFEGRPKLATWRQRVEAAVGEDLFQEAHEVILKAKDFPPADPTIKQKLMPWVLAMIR
UniProt Q92664: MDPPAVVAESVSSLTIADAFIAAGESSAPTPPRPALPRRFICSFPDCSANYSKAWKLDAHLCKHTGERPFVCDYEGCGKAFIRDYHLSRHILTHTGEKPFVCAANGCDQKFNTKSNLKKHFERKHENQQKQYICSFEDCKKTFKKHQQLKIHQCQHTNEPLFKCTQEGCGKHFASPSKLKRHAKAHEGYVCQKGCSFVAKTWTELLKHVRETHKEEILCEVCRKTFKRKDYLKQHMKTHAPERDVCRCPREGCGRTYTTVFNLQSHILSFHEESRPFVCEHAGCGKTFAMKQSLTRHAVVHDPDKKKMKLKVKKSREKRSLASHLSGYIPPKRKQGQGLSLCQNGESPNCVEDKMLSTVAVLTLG
UniProt Q9BSH5: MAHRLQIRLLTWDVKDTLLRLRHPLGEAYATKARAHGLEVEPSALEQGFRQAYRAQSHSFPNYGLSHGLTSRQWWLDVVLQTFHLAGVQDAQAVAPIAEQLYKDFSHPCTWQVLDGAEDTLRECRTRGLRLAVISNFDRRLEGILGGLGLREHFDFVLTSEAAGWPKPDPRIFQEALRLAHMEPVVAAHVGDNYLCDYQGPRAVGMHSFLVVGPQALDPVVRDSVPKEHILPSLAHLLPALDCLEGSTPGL
UniProt Q16836: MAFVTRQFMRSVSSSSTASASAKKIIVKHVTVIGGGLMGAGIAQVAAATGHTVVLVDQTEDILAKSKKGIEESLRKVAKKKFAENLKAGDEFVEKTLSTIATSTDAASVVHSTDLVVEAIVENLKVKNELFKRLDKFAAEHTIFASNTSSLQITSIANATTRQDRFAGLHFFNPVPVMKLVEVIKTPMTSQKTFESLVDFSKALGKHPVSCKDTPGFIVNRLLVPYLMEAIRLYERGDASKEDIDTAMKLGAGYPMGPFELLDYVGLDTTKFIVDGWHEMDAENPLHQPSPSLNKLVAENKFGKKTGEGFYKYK
UniProt P02042: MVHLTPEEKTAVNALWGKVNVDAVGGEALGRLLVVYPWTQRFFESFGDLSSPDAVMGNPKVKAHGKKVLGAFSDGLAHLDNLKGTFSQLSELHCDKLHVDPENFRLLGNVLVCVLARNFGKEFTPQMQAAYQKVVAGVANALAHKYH
UniProt O75791: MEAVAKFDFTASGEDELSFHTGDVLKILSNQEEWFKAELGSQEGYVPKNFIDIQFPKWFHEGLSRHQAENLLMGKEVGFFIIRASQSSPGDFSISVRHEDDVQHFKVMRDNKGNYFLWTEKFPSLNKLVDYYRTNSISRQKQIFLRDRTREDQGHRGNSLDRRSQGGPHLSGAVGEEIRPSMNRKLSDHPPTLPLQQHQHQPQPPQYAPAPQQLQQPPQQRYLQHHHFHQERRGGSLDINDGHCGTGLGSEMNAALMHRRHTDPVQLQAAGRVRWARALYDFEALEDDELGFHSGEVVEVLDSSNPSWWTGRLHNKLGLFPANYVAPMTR
UniProt O15379: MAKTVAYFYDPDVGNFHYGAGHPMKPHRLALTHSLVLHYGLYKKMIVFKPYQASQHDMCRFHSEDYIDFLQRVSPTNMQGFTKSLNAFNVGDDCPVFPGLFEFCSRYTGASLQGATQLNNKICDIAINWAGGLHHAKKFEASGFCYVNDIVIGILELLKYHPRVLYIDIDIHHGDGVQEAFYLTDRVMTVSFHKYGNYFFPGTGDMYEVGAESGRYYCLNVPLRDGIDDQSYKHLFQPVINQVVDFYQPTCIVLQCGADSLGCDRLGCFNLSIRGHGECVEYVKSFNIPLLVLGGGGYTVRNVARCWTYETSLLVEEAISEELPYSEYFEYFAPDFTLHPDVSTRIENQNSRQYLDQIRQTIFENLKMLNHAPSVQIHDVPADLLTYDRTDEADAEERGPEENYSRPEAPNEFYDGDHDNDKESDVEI
UniProt Q9Y450, whole entry, looked up: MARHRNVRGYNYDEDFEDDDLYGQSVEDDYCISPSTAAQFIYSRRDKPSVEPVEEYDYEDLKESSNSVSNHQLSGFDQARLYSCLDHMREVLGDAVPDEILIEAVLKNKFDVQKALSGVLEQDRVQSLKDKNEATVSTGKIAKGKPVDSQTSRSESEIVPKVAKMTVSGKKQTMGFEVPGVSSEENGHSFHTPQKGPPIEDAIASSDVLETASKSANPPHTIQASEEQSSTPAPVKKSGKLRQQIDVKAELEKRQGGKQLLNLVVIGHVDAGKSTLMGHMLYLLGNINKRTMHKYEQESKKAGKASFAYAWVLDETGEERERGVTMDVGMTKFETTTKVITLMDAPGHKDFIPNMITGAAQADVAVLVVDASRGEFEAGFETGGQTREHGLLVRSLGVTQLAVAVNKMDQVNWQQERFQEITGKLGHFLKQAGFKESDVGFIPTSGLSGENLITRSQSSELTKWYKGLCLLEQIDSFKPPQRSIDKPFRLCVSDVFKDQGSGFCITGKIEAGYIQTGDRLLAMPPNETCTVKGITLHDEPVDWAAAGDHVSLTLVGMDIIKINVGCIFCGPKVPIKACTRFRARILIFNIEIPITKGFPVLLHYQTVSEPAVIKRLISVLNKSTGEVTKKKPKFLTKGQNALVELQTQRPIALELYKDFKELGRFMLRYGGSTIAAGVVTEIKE
UniProt Q9UBQ7: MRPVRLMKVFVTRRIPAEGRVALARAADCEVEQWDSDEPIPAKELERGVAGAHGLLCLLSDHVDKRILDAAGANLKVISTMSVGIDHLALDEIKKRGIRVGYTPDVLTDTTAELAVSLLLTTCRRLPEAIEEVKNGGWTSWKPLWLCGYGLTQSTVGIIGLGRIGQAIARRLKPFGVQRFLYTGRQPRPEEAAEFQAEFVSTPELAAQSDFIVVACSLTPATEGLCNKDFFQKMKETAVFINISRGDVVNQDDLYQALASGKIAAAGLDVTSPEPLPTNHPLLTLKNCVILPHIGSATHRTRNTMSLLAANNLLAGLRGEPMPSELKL
UniProt Q9NYZ3: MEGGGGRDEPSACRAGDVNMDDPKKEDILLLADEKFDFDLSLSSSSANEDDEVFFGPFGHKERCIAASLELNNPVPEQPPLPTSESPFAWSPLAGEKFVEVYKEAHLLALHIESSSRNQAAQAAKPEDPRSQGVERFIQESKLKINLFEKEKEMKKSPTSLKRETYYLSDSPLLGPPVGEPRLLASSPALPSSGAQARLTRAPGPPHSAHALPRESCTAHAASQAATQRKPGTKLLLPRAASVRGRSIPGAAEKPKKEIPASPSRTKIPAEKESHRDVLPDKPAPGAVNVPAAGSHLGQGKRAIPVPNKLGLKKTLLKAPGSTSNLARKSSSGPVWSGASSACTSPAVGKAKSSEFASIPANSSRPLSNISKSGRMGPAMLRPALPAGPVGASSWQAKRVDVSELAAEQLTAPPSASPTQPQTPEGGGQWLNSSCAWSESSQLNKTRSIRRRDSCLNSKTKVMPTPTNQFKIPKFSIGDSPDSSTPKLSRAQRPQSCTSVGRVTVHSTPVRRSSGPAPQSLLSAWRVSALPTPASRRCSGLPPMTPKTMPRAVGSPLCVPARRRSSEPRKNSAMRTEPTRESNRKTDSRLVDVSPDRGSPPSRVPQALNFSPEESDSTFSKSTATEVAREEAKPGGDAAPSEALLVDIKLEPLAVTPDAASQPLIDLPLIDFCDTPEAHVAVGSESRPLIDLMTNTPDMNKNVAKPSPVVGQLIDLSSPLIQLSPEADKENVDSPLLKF

How the values were obtained:
Experiment in all cases: log2 fold change, soluble protein after heating vs DMSO (PISA); higher = thermal stabilisation; K562 lysate, 10 uM; active = over 0.2 and 3.5 SD of the protein, either way, in both replicates (recomputed)
[1] = compound: CN1CC[C@H](c2c(O)cc(O)c3c(=O)cc(-c4ccccc4Cl)oc23)[C@H](O)C1 [alvocidib]
How it was run: (§1)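 Dounce homogenisation of K562 pellets in PBS pH 7.4 with 1 mM MgCl2 produced a crude extract, used at 1 mg/mL protein. Exposure to 10 μM compound lasted 30 min, and aliquots were then heated for 3 min across 48°C-58°C, pooled and brought to 0.5% NP-40 at 4°C. The supernatant after 21,000xg for 90 min was quantified by TMTpro 16plex LC-MS/MS with channel sums equalised. Duplicate values are given as log-two fold change in thermal stability relative to solvent controls.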

[2] = compound: CN1CCc2c(c3ccccc3n2Cc2ccc(C(=O)NO)cc2)C1 [Tubastatin A]
How it was run: as §1

[3] = compound: CNC(=O)C1=CC=CC=C1NC2=NC(=NC=C2Cl)NC3=C(C=C(C=C3)N4CCOCC4)OC
How it was run: as §1

[4] = compound: CNC(=O)c1ccc(Nc2ncc(C(F)(F)F)c(NCc3nccnc3N(C)S(C)(=O)=O)n2)cc1 [defactinib]
How it was run: as §1

[5] = compound: CNc1nc(-c2ccc3c(N)n[nH]c3c2)cc(N2C[C@@H](C(=O)NC3CCCCC3)CC[C@H]2C)n1
How it was run: as §1

[6] = compound: COC(=O)N[C@@H](C)CNc1nccc(-c2cn(C(C)C)nc2-c2cc(Cl)cc(NS(C)(=O)=O)c2F)n1 [encorafenib]
How it was run: as §1

[7] = compound: COC(=O)[C@H](CCSC)NC(=O)C1=C(C=C(C=C1)NC[C@H](CS)N)C2=CC=CC=C2
How it was run: as §1

[8] = compound: COc1cc(Nc2ncc3c(n2)-c2ccc(Cl)cc2C(c2c(F)cccc2OC)=NC3)ccc1C(=O)O [alisertib]
How it was run: as §1

[9] = compound: COc1cc2nc(-c3cc(F)ccc3O)nc(N[C@@H]3CNC[C@H]3C(C)(C)O)c2cc1OC
How it was run: as §1

[10] = compound: COc1cc2ncnc(Nc3ccc(F)c(Cl)c3)c2cc1OCCCN1CCOCC1 [gefitinib]
How it was run: as §1

Measured: log2 fold change

GRWD1 (UniProt Q9BQ67)
inactive: [1] 0.009 | [2] -0.026 | [3] 0.017 | [4] 0.028 | [5] -0.013 | [6] 0.008 | [7] 0.115 | [8] -0.005 | [9] 0.024 | [10] -0.001

GTF2H2 (UniProt Q13888)
inactive: [1] -0.043 | [2] -0.065 | [3] 0.042 | [4] -0.001 | [5] 0.145 | [6] 0.04 | [7] -0.107 | [8] 0.041 | [9] -0.032 | [10] -0.015

HDGFL3 (UniProt Q9Y3E1)
inactive: [1] -0.041 | [2] 0.08 | [3] 0.013 | [4] 0.028 | [5] 0.005 | [6] -0.02 | [7] 0.04 | [8] 0.006 | [9] -0.011 | [10] -0.014

HDLBP, A0A024R4E5
inactive: [1] -0.004 | [2] -0.082 | [3] 0.01 | [4] 0.001 | [5] 0.004 | [6] 0.028 | [7] 0.073 | [8] -0.005 | [9] 0.003 | [10] 0.003

GSK3A (UniProt P49840)
active: [1] 0.53
inactive: [2] -0.089 | [3] 0.05 | [4] 0.353 | [5] -0.042 | [6] 0.161 | [7] -0.118 | [8] -0.03 | [9] -0.015 | [10] 0.003

GTF2H4 (UniProt Q92759)
inactive: [1] 0.005 | [2] -0.069 | [3] 0.018 | [4] 0.085 | [5] -0.01 | [6] 0.025 | [7] -0.015 | [8] 0.016 | [9] 0.02 | [10] -0.022

GUF1 (UniProt Q8N442)
inactive: [1] -0.204 | [2] -0.058 | [3] 0.025 | [4] -0.019 | [5] 0.029 | [6] -0.051 | [7] 0.019 | [8] -0.006 | [9] 0.038 | [10] -0.115

HAUS5 (UniProt O94927)
inactive: [1] 0.062 | [2] -0.146 | [3] 0.007 | [4] 0.026 | [5] 0.015 | [6] -0.006 | [7] 0.092 | [8] -0.01 | [9] 0.006 | [10] -0.007

GSTT1 (UniProt P30711)
inactive: [1] 0.017 | [2] 0.073 | [3] -0.003 | [4] 0.022 | [5] 0.04 | [6] 0.021 | [7] -0.031 | [8] 0 | [9] -0.035 | [10] -0.041

GTF3A (UniProt Q92664)
inactive: [1] 0.06 | [2] 0.018 | [3] 0.043 | [4] 0.006 | [5] 0.021 | [6] -0.066 | [7] 0.094 | [8] -0.05 | [9] -0.026 | [10] -0.004

GXYLT1 (UniProt Q4G148)
inactive: [1] -0.029 | [2] 0.049 | [3] 0.007 | [4] 0.022 | [5] 0.121 | [6] -0.082 | [7] 0.148 | [8] -0.12 | [9] -0.045 | [10] 0.008

HDHD3 (UniProt Q9BSH5)
inactive: [1] 0 | [2] -0.015 | [3] 0.046 | [4] 0.003 | [5] -0.016 | [6] 0.024 | [7] -0.055 | [8] 0.033 | [9] 0.001 | [10] -0.031

HADH isoform 2 (UniProt Q16836)
inactive: [1] 0.048 | [2] 0.003 | [3] -0.024 | [4] 0.061 | [5] 0.09 | [6] -0.048 | [7] 0.03 | [8] 0.021 | [9] -0.002 | [10] 0.042

HDHD5 (UniProt Q9BXW7)
inactive: [1] -0.097 | [2] -0.078 | [3] 0.041 | [4] -0.069 | [5] 0.034 | [6] 0.026 | [7] 0.024 | [8] 0.031 | [9] 0.012 | [10] -0.063

HDAC6 (UniProt Q9UBN7)
inactive: [1] -0.006 | [2] 0.11 | [3] -0.015 | [4] -0.003 | [5] -0.013 | [6] -0.017 | [7] 0.06 | [8] 0.013 | [9] 0.001 | [10] -0.012

H1-2 (UniProt P16403)
inactive: [1] -0.022 | [2] 0.017 | [3] -0.011 | [4] 0.014 | [5] -0.008 | [6] -0.027 | [7] -0.031 | [8] 0.004 | [9] 0.011 | [10] -0.023

GTF2I (UniProt P78347)
inactive: [1] 0.05 | [2] -0.096 | [3] 0.012 | [4] 0.018 | [5] -0.035 | [6] 0.015 | [7] 0.14 | [8] 0.011 | [9] 0.004 | [10] -0.01

HBD (UniProt P02042)
inactive: [1] 0.051 | [2] 0.083 | [3] 0.095 | [4] 0.036 | [5] 0.003 | [6] 0.027 | [7] -0.06 | [8] 0.031 | [9] 0.025 | [10] -0.146

GRAP2 (UniProt O75791)
inactive: [1] 0.023 | [2] -0.03 | [3] 0.016 | [4] 0.002 | [5] 0 | [6] -0.045 | [7] 0.033 | [8] -0.027 | [9] -0.003 | [10] 0.02

HCLS1 (UniProt P14317)
inactive: [1] 0.022 | [2] 0.037 | [3] -0.015 | [4] 0.001 | [5] 0.01 | [6] 0.009 | [7] -0.039 | [8] 0.001 | [9] 0.005 | [10] -0.002

HDAC3 (UniProt O15379)
inactive: [1] 0.005 | [2] -0.039 | [3] 0.013 | [4] -0.023 | [5] 0.069 | [6] 0.008 | [7] -0.057 | [8] 0.02 | [9] -0.015 | [10] 0.014

HBS1L isoform 2 (UniProt Q9Y450)
inactive: [1] -0.015 | [2] 0.05 | [3] 0.015 | [4] 0.016 | [5] 0.048 | [6] 0.072 | [7] -0.052 | [8] -0.046 | [9] -0.056 | [10] 0.013

GRHPR (UniProt Q9UBQ7)
inactive: [1] 0.099 | [2] 0.012 | [3] 0.027 | [4] -0.011 | [5] 0.01 | [6] -0.056 | [7] -0.034 | [8] 0.006 | [9] 0.008 | [10] -0.005

GTSE1 (UniProt Q9NYZ3)
inactive: [1] -0.03 | [2] -0.114 | [3] 0.104 | [4] -0.005 | [5] -0.018 | [6] 0.052 | [7] -0.127 | [8] -0.013 | [9] -0.02 | [10] 0.022

Fetched one by one from above, 2 records:
HBS1L isoform 2 (UniProt Q9Y450)
inactive: [1] -0.015 | [2] 0.05 | [3] 0.015 | [4] 0.016 | [5] 0.048 | [6] 0.072 | [7] -0.052 | [8] -0.046 | [9] -0.056 | [10] 0.013

HCLS1 (UniProt P14317)
inactive: [1] 0.022 | [2] 0.037 | [3] -0.015 | [4] 0.001 | [5] 0.01 | [6] 0.009 | [7] -0.039 | [8] 0.001 | [9] 0.005 | [10] -0.002

Later entries.

H1-5 (UniProt P16401)
inactive: [1] 0.031 | [2] 0.076 | [3] -0.001 | [4] -0.025 | [5] 0.114 | [6] 0.019 | [7] -0.027 | [8] 0.027 | [9] 0.009 | [10] -0.023

HAUS1 (UniProt Q96CS2)
inactive: [1] 0.034 | [2] -0.047 | [3] 0.029 | [4] 0.022 | [5] -0.005 | [6] 0.023 | [7] -0.179 | [8] 0.026 | [9] -0.037 | [10] 0.005

GSPT1 isoform 3 (UniProt P15170)
inactive: [1] 0.032 | [2] -0.012 | [3] 0.006 | [4] 0.01 | [5] 0.019 | [6] -0.012 | [7] -0.024 | [8] 0.014 | [9] -0.001 | [10] -0.037

GTPBP4 (UniProt Q9BZE4)
inactive: [1] 0.035 | [2] -0.018 | [3] 0.008 | [4] -0.001 | [5] 0.003 | [6] -0.011 | [7] 0.102 | [8] 0.005 | [9] -0.008 | [10] -0.023

HDHD2 (UniProt Q9H0R4)
inactive: [1] -0.021 | [2] 0.027 | [3] -0.019 | [4] -0.014 | [5] 0.001 | [6] 0.013 | [7] -0.032 | [8] -0.011 | [9] 0.012 | [10] -0.02
